At least one structure is not confirmed: it was looked up by name or label, or the drawing left a doubt. Some entries repeat one wording, which the source may state once for all of them.
How the values were obtained:
[1] = test system: GR8 tumor; assay: GR8 tumor mouse model of xenotransplantation, tumor growth (FIG. 2B); assay type: in vivo, mice; details: 100 mg/kg daily for 35 days
[2] = test system: GR6 tumor; assay: Tumor re-progression in GR6 tumor mice, single and combined treatment with osimertinib (FIG. 3A); assay type: in vivo; details: Compound 35d 100 mg/kg per day, osimertinib 1 mg/kg per day, alone or combined
Method: EGFR-TKIs are currently the standard treatment for NSCLC patients with the EGFR gene mutation. To further test whether the combined use of the diarylheptanoid compound of the present disclosure and known drug can enhance the therapeutic effect of NSCLC, the GR6 tumor mice were divided into 4 groups. One group received 100 mg/kg Compound 35d treatment per day (represented as 35d), another group received 1 mg/kg osimertinib treatment per day (represented as Osi), still another group received the combined treatment of 100 mg/kg Compound 35d and 1 mg/kg osimertinib per day (represented as 35d+Osi), and the other group was the control group without drug treatment.

[3] = test system: GR2 cells; assay: Cell survival assay in gefitinib-resistant NSCLC cells, IC50 (FIG. 1C); assay type: cell-based; details: treated for 3 days, versus curcumin
Method: (§1) Experimentally, another 7 EGFR-TKIs resistant NSCLC cells were treated with Compound 21a, Compound 35a, Compound 35d, Compound 36 or Compound 37, and then the cell survival assay was performed to measure the IC50 values of the diarylheptanoid compounds of the present disclosure in the EGFR-TKIs resistant NSCLC cells, so as to determine the growth inhibitory effect of the diarylheptanoid compounds of the present disclosure on the EGFR-TKIs resistant NSCLC cells.
(§2) Please refer to FIG. 1B, FIG. 1C and FIG. 1D.

[4] = test system: GR6 cells; assay: as above; assay type: cell-based; details: treated for 3 days, versus curcumin
Method: as §1, §2

[5] = test system: GR10 cells; assay: as above; assay type: cell-based; details: treated for 3 days, versus curcumin
Method: as §1, §2

[6] = test system: GR9 cells; assay: as above; assay type: cell-based; details: treated for 3 days, versus curcumin
Method: as §1, §2

[7] = test system: GR5 cells; assay: as above; assay type: cell-based; details: treated for 3 days, versus curcumin
Method: as §1, §2

[8] = test system: GR8 cells; assay: as above; assay type: cell-based; details: treated for 3 days, versus curcumin
Method: as §1, §2

[9] = test system: gefitinib-resistant cell lines (GR2, GR5, GR6, GR8, GR9 and GR10 cells) versus HCC827 cells; assay: IC50 of gefitinib-resistant cell lines compared with parental HCC827 cells (FIG. 1D); assay type: cell-based; details: all gefitinib-resistant cell lines versus HCC827, treated for 3 days
[10] = test system: GR6 tumor; assay: GR6 tumor mouse model of xenotransplantation, tumor growth (FIG. 2A); assay type: in vivo, mice; details: 100 mg/kg daily for 35 days
[11] = test system: H1975 cells; assay: Cell survival assay in EGFR-TKIs resistant NSCLC cells, IC50 (FIG. 1B); assay type: cell-based; details: treated for 3 days, versus curcumin
Method: as §1, §2

[12] = test system: H1650 cells; assay: Growth inhibition of EGFR gene mutant NSCLC cells, cell survival stained with crystal violet, IC50 (FIG. 1A); assay type: cell-based; details: treated for 3 days, versus parent compound curcumin
Method: The EGFR gene mutant NSCLC cells were treated with the diarylheptanoid compounds of the present disclosure, and then the cell survival was stained with crystal violet to measure the IC50 values of the diarylheptanoid compounds of the present disclosure in the EGFR gene mutant NSCLC cells, so as to determine the growth inhibitory effect of the diarylheptanoid compounds of the present disclosure on the EGFR gene mutant NSCLC cells.
EGFR gene mutations in lung cancer are mostly found in exons 18-21, which are the intracellular tyrosine kinase coding region. The most common mutations include E746-A750del in exon 19 and L858R point mutation in exon 21, which account for about 85%-90% of EGFR gene mutations. Tumor cells with these two mutations are sensitive to the EGFR-TKIs, known as activating mutations. Secondary mutations may occur in some tumor cells, and the most common secondary mutation is the T790M mutation in exon 20, which is a drug resistance mutation. […] The H1650 cells have the E746-A750del mutation in exon 19 of the EGFR gene, wherein the CCM represents curcumin and the BDMC represents bisdemethoxycurcumin.

SMILES: C#CCC(CC#C)(C(=O)/C=C/c1ccc(OC(=O)C(C)(CO)CO)c(OC)c1)C(=O)/C=C/c1ccc(OC(=O)C(C)(CO)CO)c(OC)c1 [Compound 35d, ((1E,6E)-3,5-dioxo-4,4-di(prop-2-yn-1-yl)hepta-1,6-diene-1,7-diyl)bis(2-methoxy-4,1-phenylene)bis(3-hydroxy-2-(hydroxymethyl)-2-methylpropanoate)]
- inhibition of tumor growth in the GR8 tumor mice [1]: significantly inhibits the tumor growth
- tumor size / tumor re-progression in the GR6 tumor mice [2]: significantly inhibited
- inhibitory activity on the growth of the GR2 cells (IC50) compared with curcumin [3]: significantly better inhibitory activity than curcumin
- inhibitory activity on the growth of the GR6 cells (IC50) compared with curcumin [4]: significantly better inhibitory activity than curcumin
- inhibitory activity on the growth of the GR10 cells (IC50) compared with curcumin [5]: significantly better inhibitory activity than curcumin
- inhibitory activity on the growth of the GR9 cells (IC50) compared with curcumin [6]: significantly better inhibitory activity than curcumin
- inhibitory activity on the growth of the GR5 cells (IC50) compared with curcumin [7]: significantly better inhibitory activity than curcumin
- inhibitory activity on the growth of the GR8 cells (IC50) compared with curcumin [8]: significantly better inhibitory activity than curcumin
- sensitivity of gefitinib-resistant cell lines (IC50 compared with HCC827 cells) [9]: indirectly sensitive
- inhibition of tumor growth in the GR6 tumor mice [10]: significantly inhibits the tumor growth
- inhibitory activity on the growth of the H1975 cells (IC50) compared with curcumin [11]: significantly better inhibitory activity than curcumin
- inhibitory activity on the growth of the H1650 cells (IC50) compared with curcumin [12]: significantly better inhibitory activity than the parent compound—curcumin

SMILES: CC(CO)(CO)C(=O)Oc1ccc(/C=C/C(=O)C(C)(C)C(=O)/C=C/c2ccc(OC(=O)C(C)(CO)CO)cc2)cc1 [Compound 36, ((1E,6E)-4,4-dimethyl-3,5-dioxohepta-1,6-diene-1,7-diyl)bis(4,1-phenylene)bis(3-hydroxy-2-(hydroxymethyl)-2-methylpropanoate)]
- inhibitory activity on the growth of the GR2 cells (IC50) compared with curcumin [3]: significantly better inhibitory activity than curcumin
- inhibitory activity on the growth of the GR6 cells (IC50) compared with curcumin [4]: significantly better inhibitory activity than curcumin
- inhibitory activity on the growth of the GR10 cells (IC50) compared with curcumin [5]: significantly better inhibitory activity than curcumin
- inhibitory activity on the growth of the GR9 cells (IC50) compared with curcumin [6]: significantly better inhibitory activity than curcumin
- inhibitory activity on the growth of the GR5 cells (IC50) compared with curcumin [7]: significantly better inhibitory activity than curcumin
- inhibitory activity on the growth of the GR8 cells (IC50) compared with curcumin [8]: significantly better inhibitory activity than curcumin
- inhibitory activity on the growth of the H1975 cells (IC50) compared with curcumin [11]: significantly better inhibitory activity than curcumin
- inhibitory activity on the growth of the H1650 cells (IC50) compared with curcumin [12]: significantly better inhibitory activity than the parent compound—curcumin

SMILES: COc1ccc(/C=C/C(=O)C(C)(C)C(=O)/C=C/c2ccc(OC)c(OC(=O)C(C)(CO)CO)c2)cc1OC(=O)C(C)(CO)CO [Compound 37, ((1E,6E)-4,4-dimethyl-3,5-dioxohepta-1,6-dien-1,7-diyl)bis(2-methoxy-5,1-phenylene)bis(3-hydroxy-2-(hydroxymethyl)-2-methylpropanoate)]
- inhibitory activity on the growth of the GR2 cells (IC50) compared with curcumin [3]: significantly better inhibitory activity than curcumin
- inhibitory activity on the growth of the GR6 cells (IC50) compared with curcumin [4]: significantly better inhibitory activity than curcumin
- inhibitory activity on the growth of the GR10 cells (IC50) compared with curcumin [5]: significantly better inhibitory activity than curcumin
- inhibitory activity on the growth of the GR9 cells (IC50) compared with curcumin [6]: significantly better inhibitory activity than curcumin
- inhibitory activity on the growth of the GR5 cells (IC50) compared with curcumin [7]: significantly better inhibitory activity than curcumin
- inhibitory activity on the growth of the GR8 cells (IC50) compared with curcumin [8]: significantly better inhibitory activity than curcumin
- inhibitory activity on the growth of the H1975 cells (IC50) compared with curcumin [11]: significantly better inhibitory activity than curcumin
- inhibitory activity on the growth of the H1650 cells (IC50) compared with curcumin [12]: significantly better inhibitory activity than the parent compound—curcumin
